Results reported in PMC9829575.
Results are given in words; binding and its absence hold for the method and conditions named. In cells and extracts the contact can be indirect. Binding calls can cover weak binding; strength is not graded here.

Molecular target: recombinant ubiquitin-associated domain (UBA) of p62/sequestosome-1 on agarose beads (UniProt Q13501)
Experiment: pull-down; UBA-p62 agarose beads (Enzo) or glutathione-agarose beads incubated with RIPA-soluble lysates of the isolated sciatic nerve myelin fraction for 24 h at 4 °C with rotation; beads washed three times with RIPA buffer, then SDS-PAGE; only the target purified

binding: binds
Substance: myelin basic protein (from UniProt P04370-5)
